# Screening data, single-dose tests

Data taken from ChEMBL document CHEMBL3988442, “University of Dundee, Small-Polar-MMV Screening Library” (2021).

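Assay of Toxoplasma gondii numbers, read through their beta-galactosidase reporter with a colour substrate. Tested at 10 µM. The record gives no direction; the compounds picked for IC50 retests had high values, so higher reads as fewer parasites. About 67,000 compounds were tested under these conditions; 0.38% (about 260) showed 50% or more at least once.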

The filed quantity is “Percent Effect” (%). The record does not define 0% and 100%; most values in the screen are far below 50% and negative numbers occur (in some assays of this library far below -100). The compounds are a random part of those screened.

compound,percent effect
CNC(=O)CC1CC2(CCN(Cc3nccs3)CC2)c2ccccc21.O=C(O)C(F)(F)F (stereo unspecified),12.14
N#Cc1ccc(CC(=O)N2CCCC(n3cccn3)C2)cc1 (stereo unspecified),-0.4632
Cc1noc(C)c1CN1CCOC2(CCCN(c3ccccn3)C2)C1 (stereo unspecified),22.93
CS(=O)(=O)CCN1CCN(c2ccc(Cl)cn2)CC1,-0.4419
Cc1noc(C)c1CC(=O)N1CCCN(Cc2cscn2)CC1,-31.9
CC(C)CCN1C2(CCN(C(=O)N(C)C)C2)c2ccccc2S1(=O)=O (stereo unspecified),17.09
O=C(NCCOCC1CC1)Nc1ccc(F)cc1,1.765
CCN(Cc1ccccc1)c1ncnc2c(C)nn(CC)c12,3.659
[H][C@@]12CCN(Cc3ccc4c(c3)OCO4)C[C@@]1([H])O[C@@H](c1noc(C)n1)C2,-40.21
CC1(C)[C@H](Cc2cc(CO)on2)C[C@@H]1NCc1ccc(CO)o1,-8.125
Cc1ccc(-c2nc(CN3CCc4nn(C)c(=O)cc4C3)co2)cc1,7.524
c1ccc2c(c1)CC(N1CCCC(NCc3ccc4nonc4c3)C1)C2 (stereo unspecified),4.078
NC(=O)NC(=O)CCN(Cc1ccccc1)CC1CCOCC1,7.391
[H][C@@]12CN(S(C)(=O)=O)C[C@]1(C(=O)NC)CCC21CCN(S(C)(=O)=O)CC1,-1.01
COCc1noc(C2(c3ccc(F)cc3)CCOCC2)n1,-10.16
COCCN1CC2(CCN(C(=O)c3ccno3)CC2)c2ccccc21.O=C(O)C(F)(F)F,-21.04
COc1cccc(C(=O)Nc2cc(CC(C)C)nn2C)c1,-0.1059
CC(=O)N1CCCN(C(=O)c2cnc(OC(C)C)c(Cl)c2)CC1,-11.77
O=C(O)C(F)(F)F.O=C(O)C(F)(F)F.c1cc(CN2CCCC3(COCCN(Cc4c[nH]nn4)C3)C2)cs1 (stereo unspecified),7.944
CC(C)c1nc(S(=O)(=O)N2CCSc3ccccc32)c[nH]1,8.974
N#Cc1cc2n(n1)CCN(C(=O)CCc1c[nH]c3ccccc13)C2,-15.75
CC(=O)Nc1nc(CN2CCCCC2Cn2cncn2)cs1 (stereo unspecified),10.36
O=C1CC(c2ccncc2)c2c(c(C(=O)O)cn2-c2ccc(F)cc2)N1 (stereo unspecified),0.8368
Cn1ccc(C(=O)NC2CCC23CCN(C(=O)N2CCCC2)CC3)c1 (stereo unspecified),-1.56
CN1N=C(C(=O)N2CCCN(c3ncccc3C#N)CC2)CCC1=O,-2.425
Cc1cc(C)cc(-c2cccc(CC3(C(=O)O)CCOCC3)c2)c1,27.48
Nc1ncnc2c1ncn2[C@H]1CCN(Cc2ccsc2)CC[C@@H]1O,0.7182
O=C(O)C(F)(F)F.[H][C@@]12CN(Cc3ccsc3)CCO[C@]1([H])CN(C(=O)C1CCOCC1)C2,5.616
CC(C)CN1CCC2(CCN(Cc3ccc(F)cc3)CC2)C1=O.O=C(O)C(F)(F)F,-6.028
CN1CCC2(CC1)CN(C(=O)c1cccc3cccnc13)CCN2C,0.4315
Cn1ccnc1SCc1nc(C(C)(C)NC(=O)OC(C)(C)C)no1,-2.974
CCOC1COC2(CCN(S(=O)(=O)c3cccc(C)c3)CC2)C1 (stereo unspecified),-8.294
c1cncc(OC2CCN(CCn3cc4ccccc4n3)CC2)c1,-15.21
O=C(NCCOc1cccc(Cl)c1Cl)N1CCC2(CC1)OCCO2,5.967
O=C(N1CCCC(n2cncn2)C1)C1(c2ccc(Cl)cc2)CCC1 (stereo unspecified),10.6
CC1(c2ccc(Br)cc2)CC(=O)N(CC(N)=O)C1=O (stereo unspecified),1.986
OC(CN1CCN(c2ncccn2)CC1)c1cccc(F)c1 (stereo unspecified),3.137
CCn1ncnc1C(C)NC(=O)Cc1cc2c(cc1Cl)OCCO2 (stereo unspecified),-1.617
Cc1nc(CN2CCOCC3(CCN(c4ncccn4)C3)C2)cs1.O=C(O)C(F)(F)F.O=C(O)C(F)(F)F (stereo unspecified),-5.755
O=C(COCc1ccccc1)N1CCCn2cncc2C1,-29.87
CN(C)CC(=O)N1CC2(CCN(S(=O)(=O)c3ccccc3)C2)C1,-7.433
CCc1nnc2n1CCN(Cc1csc(NC(C)=O)n1)C2,18.76
COC1CCN(C(=O)Cn2ncc(N3CCCCC3)cc2=O)C1 (stereo unspecified),-14.33
CCn1c(CN2CCOC(Cn3cccn3)C2)nc2c(F)cccc21 (stereo unspecified),7.949
CCC(C(=O)Nc1ccc(-c2nc(C)n[nH]2)cc1)N1CCCC1=O (stereo unspecified),-0.6846
COc1cc(N2CCC3(CC2)CC(N2CCOCC2)C3)ncn1.O=C(O)C(F)(F)F,-23.45
Cc1nc2c(c(C)c1CC(=O)Nc1ccnn1C(C)C)c(=O)[nH]n2C,-8.19
CCn1ccnc1CNCc1ccc(C)cc1OC(C)(C)C,9.827
O=C(O)c1cccnc1CN(Cc1ccsc1)C1CC1,-1.847
CCCC(C)N(C)C(=O)c1nc(S(C)(=O)=O)n2ccccc12 (stereo unspecified),-1.33
COCCC(=O)NCc1ccc(-c2ncncc2C(=O)N(C)C)cc1,-1.911
Cc1cc(C(=O)NCCc2c(C)nn(C)c2C)nc(N2CCCCC2)n1,8.84
Cn1c(CCNc2nccnc2C#N)nc2ccc(F)cc21,8.772
COc1cccn(CC(=O)N(C)CCSC)c1=O,-4.777
CCC[C@H]1CN(S(=O)(=O)c2c(C)noc2C)C[C@@H]1N,3.56
CCC(C)S(=O)(=O)N1CCc2nc(C3CCNCC3)ncc2C1.Cl (stereo unspecified),12.03